Data on 42 sequences can be found in publication PMC7819943, “Rice protein-binding microarrays: a tool to detect cis-acting elements near promoter regions in rice”.

Some of the results follow.

The test addresses T1, OsSMF1 (Oryza sativa, UniProt Q6ZLB0 1-436).
T1 sequence: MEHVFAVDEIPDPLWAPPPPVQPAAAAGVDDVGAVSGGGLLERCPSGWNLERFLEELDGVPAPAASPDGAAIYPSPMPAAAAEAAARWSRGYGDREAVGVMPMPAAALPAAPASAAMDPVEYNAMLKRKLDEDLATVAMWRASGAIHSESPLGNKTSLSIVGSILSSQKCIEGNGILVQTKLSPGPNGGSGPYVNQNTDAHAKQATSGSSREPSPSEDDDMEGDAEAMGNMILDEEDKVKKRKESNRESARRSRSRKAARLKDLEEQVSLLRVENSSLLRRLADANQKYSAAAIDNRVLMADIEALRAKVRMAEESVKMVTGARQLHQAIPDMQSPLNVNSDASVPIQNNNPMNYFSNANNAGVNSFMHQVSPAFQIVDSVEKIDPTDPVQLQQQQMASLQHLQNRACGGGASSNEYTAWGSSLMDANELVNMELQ
Description: protein-binding microarray (RPBM); PBS, 2% BSA, 51.3 ng/ul salmon testes DNA, 50 uM zinc acetate, 200 nM TF, 25 C, 1 h; high values mean tight binding. Conditions: protein: recombinant; tags: N-terminal polyhistidine and DsRed monomer fusion (pET32a); chain copies: 2; label: CyDye5-dUTP incorporated in the synthesized complementary strand; 3' TTTTT single-stranded linker to array surface; dsDNA, one strand shown. The gist of the method: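 Polyhistidine-tagged DsRed fusions of transcription factors, joined at the N-terminus, were expressed in E. coli BL21-CodonPlus and isolated on Ni–NTA. They were incubated at 200 nM for 1 h at 25 °C on a custom Agilent array, double-stranded and BSA-blocked, in PBS with 2% BSA, salmon testes DNA and 50 µM zinc acetate. The binding signal is per-feature fluorescence intensity (arbitrary units) read on an Axon 4000B scanner after washing.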
Regarding “ATGGTATTGTGAGTAATAAGCTCCTGACATGTGTGGTTTCCGGAGTCACCTAGTGCAG”, the binding signal is 5210 fluorescence intensity (a.u.).
In the case of “TCCTCACATGATGTACAGTCACACACACTCCTCCTCTCTCCGGAGTCACCTAGTGCAG”, the binding signal was 8550 fluorescence intensity (a.u.).
Then “TGCTATGCTTATTACAATGCTATGCTGACAGACCATTTTGCGGAGTCACCTAGTGCAG”, with 4540 fluorescence intensity (a.u.); and “GTTCTGTCTTAACCTGCTTTCATATTAATTGTTAAAGTTGCGGAGTCACCTAGTGCAG”, with 3280 fluorescence intensity (a.u.); and “TCGTGCCAGGGCCCGTGCCACGCCAAGCCGCACTTCTAACCGGAGTCACCTAGTGCAG”, with 4540 fluorescence intensity (a.u.).
For “CTGCGTTCCAGTGCCAGTCCATCTCCAGTGGTCAGCGGCGCGGAGTCACCTAGTGCAG” the value was 3650 fluorescence intensity (a.u.); for “AATAGGCGATCAGGAACCGTGGATGCGTAGAGCTCGCCGACGGAGTCACCTAGTGCAG”, 33900 fluorescence intensity (a.u.); for “CTACCCTGGACGAAGCCGGGCGGCGGTGTCACCTCTCGCCCGGAGTCACCTAGTGCAG”, 3860 fluorescence intensity (a.u.).
Then “CTTTTGCCAAGCTGGATAGTGGACATCACACAACCAACCGCGGAGTCACCTAGTGCAG”, with 4460 fluorescence intensity (a.u.); and “ACACACCCCTAGAATGGCGATGAGGACGAAGCTGATGTGGCGGAGTCACCTAGTGCAG”, with 9610 fluorescence intensity (a.u.); and “AAGTGAATCACGCCCACGCGTGATCGTCTTGTCACATCTACGGAGTCACCTAGTGCAG”, with 3900 fluorescence intensity (a.u.).
Turning to “GAAGCTTCGAGACAAGATGACTCGGATTCAGCACTGACATCGGAGTCACCTAGTGCAG”, the binding signal is 4200 fluorescence intensity (a.u.).
For “CCTACTTGGGAAGTTGGGTGGGATTGGCGTCGTGTTCGTGCGGAGTCACCTAGTGCAG” the value was 3950 fluorescence intensity (a.u.); for “CACGGGAGCGAGCAGAGCGGTGGGTAGCAGCCCACCTCCACGGAGTCACCTAGTGCAG”, 3300 fluorescence intensity (a.u.); for “AGTTTTACAAGTTGAGGAGCACGTTATAACTGATATTGTCCGGAGTCACCTAGTGCAG”, 5510 fluorescence intensity (a.u.).
For “GCACCACCTGCGCTGCTTCCGCTCCACGCCGGCGCCGCGCCGGAGTCACCTAGTGCAG” the value was 3320 fluorescence intensity (a.u.).
Then “TGTTGTAGGATGAGGGGTGCCGCTCGGCGGTGAGGTGGAGCGGAGTCACCTAGTGCAG”, with 6250 fluorescence intensity (a.u.).
With “GTCCGGATCTCCGCTCTTTGTCGAGTCGACTCCTATTCCTCGGAGTCACCTAGTGCAG”, the binding signal was 3470 fluorescence intensity (a.u.).
Then “CTTCTCTTATTGTTTGTGTCATTTTCATTTATGTCCTTGTCGGAGTCACCTAGTGCAG”, with 3940 fluorescence intensity (a.u.); and “ATAATAATTGCTAGTGGGTGATGATGTGGTATACTTGCATCGGAGTCACCTAGTGCAG”, with 5680 fluorescence intensity (a.u.).
For “TTTACCCCTCTGCATCCATCCACCAACCCGATCGACGACTCGGAGTCACCTAGTGCAG” the value was 3290 fluorescence intensity (a.u.); for “TGACCTGACCAAACCATGCATTGTCAGACTCAACCTCAAACGGAGTCACCTAGTGCAG”, 3740 fluorescence intensity (a.u.).
For “GAAGTCAGTAAGGAACATCAAGCAAGAAAACACTGATGGTCGGAGTCACCTAGTGCAG” the value was 4750 fluorescence intensity (a.u.); for “TACTGGCCAAAGTAATCTAGATGATCTGGCAGCGCATACCCGGAGTCACCTAGTGCAG”, 6150 fluorescence intensity (a.u.); for “AAATTAGAGGATGTTGGATATCTGTTTTAGAGGGTCTTTGCGGAGTCACCTAGTGCAG”, 3180 fluorescence intensity (a.u.).
As to “TGTGATATGTTCCTGTGAGCTGTCCCTCATCTAATTACCCCGGAGTCACCTAGTGCAG”, the binding signal was 4430 fluorescence intensity (a.u.).
As for “GCGTAGCCGCAAGAAAGCGTACGAGTCATCGCCTTACATCCGGAGTCACCTAGTGCAG”, the binding signal was 4940 fluorescence intensity (a.u.).
For “CTCCCGGACCTTGAAGCCATCGCAGCCAAGGCCCTGCGCCCGGAGTCACCTAGTGCAG” the value was 35000 fluorescence intensity (a.u.).
Then “AAAGCAACATCCCAGATGTTTCTAGCTGCGTATACTAGTCCGGAGTCACCTAGTGCAG”, with 3180 fluorescence intensity (a.u.).
As for “CACCAGCGGCAGAGTAGCTGACCTGACCGACCAGCCATGGCGGAGTCACCTAGTGCAG”, the binding signal was 3480 fluorescence intensity (a.u.).
For “AAATGGCCTTGCACACCTTGTCATTGAAATTAAGAACAAACGGAGTCACCTAGTGCAG” the value was 6400 fluorescence intensity (a.u.); for “TCATGCTAACGTCTAACCTCATCGTTATCGTCGTGTCACGCGGAGTCACCTAGTGCAG”, 5780 fluorescence intensity (a.u.).
For “CAATCCCACCACGCCTACCCTAAACCCACGGCGATCTCCTCGGAGTCACCTAGTGCAG” the value was 3320 fluorescence intensity (a.u.).
Then “GCTTTAGTCTACGTGACATACGCGTGGCAGTCCAGTCAGCCGGAGTCACCTAGTGCAG”, with 14500 fluorescence intensity (a.u.); and “GGACATAAATATACCACTGATATAAGCATCAAATAATTTGCGGAGTCACCTAGTGCAG”, with 3930 fluorescence intensity (a.u.).
Turning to “GTTGGAATCCCCTACGAAATCCGGCCGCCGCCTCTGACCTCGGAGTCACCTAGTGCAG”, the binding signal was 3320 fluorescence intensity (a.u.).
Then “GGGTGGTGGGCCCCGCCGCCATAGTAATCGCTCGAGCTCGCGGAGTCACCTAGTGCAG”, with 4650 fluorescence intensity (a.u.); and “CCCTTCAGCACGTGGCTGATGCCCTTGCCGCTGCCCAGCCCGGAGTCACCTAGTGCAG”, with 3620 fluorescence intensity (a.u.); and “CATTTCAACCACCAGTGCCAAATTCACAGCTTAGTTTAAACGGAGTCACCTAGTGCAG”, with 5840 fluorescence intensity (a.u.).
For “CCATCTGCGGCGTACTTGCCACTTTTCTTCGATCGGCACCCGGAGTCACCTAGTGCAG” the value was 3550 fluorescence intensity (a.u.).
“GGTCGACCCACCGTCTGCCACGTCAGCTTGCTGCCCACCACGGAGTCACCTAGTGCAG”: the binding signal was 48400 fluorescence intensity (a.u.).
Turning to “TCTTTGTCTCCAACTCCCTCGTCTCCTTGTACGCCAAGTTCGGAGTCACCTAGTGCAG”, the binding signal was 3730 fluorescence intensity (a.u.).
